From patent publication US20230065495A1, “MULTIPARTITE AND CIRCULARLY PERMUTED BETA-BARREL POLYPEPTIDES AND METHODS FOR THEIR USE” (University of Washington, priority 2020, published 2023)
No constants are given. Whether binding was seen depends on the method and setting. Some results given as binding are weak or reduced against the parent protein; the word gives no strength. Tags and fused reporters may be left off the sequences shown. Values belong to the binder of their own block, whether it stands above or below them.

Key:
[1] = biological target: T1, MBP-tagged split mFAP fragment m78 (β-strands 7-8 of mFAP2a); experiment: split mFAP self-complementation, MBP-tagged fragments mixed equimolar with excess DFHBI-1T, fluorescence endpoint (n=3)
T1 sequence: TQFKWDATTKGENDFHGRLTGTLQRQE

[2] = biological target: T2, MBP-tagged split mFAP fragment m8 (β-strand 8 of mFAP2a); experiment: as above
T2 sequence: RLTGTLQRQE

[3] = biological target: T3, MBP-tagged split mFAP fragment m16 (β-strands 1-6 of mFAP2a); experiment: fluorescence complementation titration in excess DFHBI-1T
T3 chain: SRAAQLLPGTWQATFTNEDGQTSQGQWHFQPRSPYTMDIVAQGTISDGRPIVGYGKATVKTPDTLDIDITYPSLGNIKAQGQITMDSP

[4] = biological target: T3, MBP-tagged split mFAP fragment m16 …; experiment: β-barrel self-complementation assay (fluorescence of DFHBI-1T)
[5] = biological target: T3, MBP-tagged split mFAP fragment m16 …; experiment: titration of MBP-tagged m78 into fixed MBP-tagged m16 (16.8 µM) in 25.0 µM DFHBI-1T, fluorescence endpoint (n=1)
[6] = biological target: T4, MBP-tagged split mFAP fragment m17 (β-strands 1-7 of mFAP2a); experiment: fluorescence complementation titration in excess DFHBI-1T
T4 chain: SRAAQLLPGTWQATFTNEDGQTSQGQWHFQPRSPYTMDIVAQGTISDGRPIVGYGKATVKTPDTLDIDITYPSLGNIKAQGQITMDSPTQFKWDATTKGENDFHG

[7] = biological target: T4, MBP-tagged split mFAP fragment m17 …; experiment: β-barrel self-complementation assay (fluorescence of DFHBI-1T)
[8] = biological target: T4, MBP-tagged split mFAP fragment m17 …; experiment: titration of MBP-tagged m8 into fixed MBP-tagged m17 (14.1 µM) in 25.0 µM DFHBI-1T, fluorescence endpoint (n=1)

binding [2]: binds
B2: MBP-tagged split mFAP fragment m17 (β-strands 1-7 of mFAP2a) (designed binder, not shown: large carriers)
chain: T4 chain

binding [3]: binds
binding [4]: binds
binding [5]: binds
B3: MBP-tagged split mFAP fragment m78 (β-strands 7-8 of mFAP2a) (designed binder, not shown: large carriers)
chain: TQFKWDATTKGENDFHGRLTGTLQRQE

The remaining lines, values behind:

B1: MBP-tagged split mFAP fragment m16 (β-strands 1-6 of mFAP2a) (designed binder, not shown: large carriers)
chain: T3 chain
binding [1]: binds

B4: MBP-tagged split mFAP fragment m8 (β-strand 8 of mFAP2a) (designed binder, not shown: large carriers)
chain: RLTGTLQRQE
binding [6]: binds
binding [7]: binds
binding [8]: binds
